Positions count from the first letter of the chain named. Results are given in words; binding and its absence hold for the method and conditions named. Some binding calls cover weakened binding; strength is not graded here.
Experiments:
[1] = molecular target: tau in neurofibrillary tangles (NFTs) in paraffin sections from AD patients (human) (UniProt P10636); experiment: IHC on human paraffin sections
[2] = molecular target: tau-positive glial inclusions in the FTD case (oligodendroglial coiled bodies) and in the PSP case (astrocytic tufts) (human) (UniProt P10636); experiment: IHC on human paraffin sections
[3] = molecular target: tau in NFTs of Tg4510 transgenic mice (UniProt P10636); experiment: IHC on Tg4510 mouse free-floating sections
[4] = molecular target: tau in NFTs of Tg4510 transgenic mice (UniProt P10636); experiment: conclusion of Example II (ELISA and IHC)
[5] = molecular target: tau in NFTs of Tg4510 transgenic mice (UniProt P10636); experiment: IHC on Tg4510 brain slices, VHH at 2 µg/ml, anti-His detection
[6] = molecular target: tau in NFTs of Tg4510 transgenic mice (UniProt P10636); experiment: IHC with rabbit anti-VHH antibodies four hours after intravenous injection, Tg4510 mice

Chains of the proteins cited; added tags and fusions are not shown. Lines headed by an entry give the natural chain unless they say otherwise; changes in a name come on top. A line that says so, or that is headed by a name, gives the form on record, which may keep a tag or linker.
tau-positive glial inclusions in the FTD case (oligodendroglial coiled bodies) and in the PSP case (astrocytic tufts) (P10636, form named): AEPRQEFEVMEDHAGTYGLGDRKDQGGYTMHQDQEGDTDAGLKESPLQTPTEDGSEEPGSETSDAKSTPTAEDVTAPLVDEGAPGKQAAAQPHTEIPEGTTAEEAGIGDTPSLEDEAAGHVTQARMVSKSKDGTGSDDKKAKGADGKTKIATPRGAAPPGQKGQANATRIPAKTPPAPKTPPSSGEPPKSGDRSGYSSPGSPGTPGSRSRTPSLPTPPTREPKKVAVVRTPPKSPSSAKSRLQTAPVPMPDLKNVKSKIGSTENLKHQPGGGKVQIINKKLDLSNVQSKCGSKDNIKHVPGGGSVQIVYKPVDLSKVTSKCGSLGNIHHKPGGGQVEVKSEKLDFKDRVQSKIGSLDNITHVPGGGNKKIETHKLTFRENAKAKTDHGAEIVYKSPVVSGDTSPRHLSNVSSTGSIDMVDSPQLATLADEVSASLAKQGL
tau in NFTs of Tg4510 transgenic mice (P10636, form named): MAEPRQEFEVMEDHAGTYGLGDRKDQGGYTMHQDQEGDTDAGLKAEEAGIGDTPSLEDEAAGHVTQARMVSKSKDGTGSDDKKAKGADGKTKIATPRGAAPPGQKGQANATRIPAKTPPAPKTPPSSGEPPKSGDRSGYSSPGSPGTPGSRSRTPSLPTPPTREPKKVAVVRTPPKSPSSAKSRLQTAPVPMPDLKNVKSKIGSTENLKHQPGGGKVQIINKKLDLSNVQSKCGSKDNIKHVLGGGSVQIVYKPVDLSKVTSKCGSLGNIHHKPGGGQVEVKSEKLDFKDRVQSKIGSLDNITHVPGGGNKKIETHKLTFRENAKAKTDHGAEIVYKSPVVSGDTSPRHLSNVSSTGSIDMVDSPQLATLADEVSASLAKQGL

B1: VHH Tau-A2 (VHH)
VHH: EVQLQASGGGLVQAGGSLRLSCAASGRSFSGSTMEWYRQAPGKERKFVAAIRTISSRTYYVDSVKGRFTISRDSTKNTVYLQLNSLKVEDTAVYYCAARFSGTIGTTSSVDYWGQGTQVTVSS
notes: Alpaca VHH, expressed in E. coli with a His-tag or a Strep-tag; monomeric by DLS; not shown: 6-Histidine tag (pET23d) or C-terminal Strep-tag (pASK IBA2)
- binding [1]: binds
- binding [2]: binds
- binding [3]: binds

B2: VHH Tau-A2var-SH (VHH)
VHH: B1 VHH with E1D, Q5E, I54G, V88G, S122G, S123G
- binding [4]: binds
- binding [5]: binds

B3: VHH Tau-A2-SH (VHH)
VHH: B1 VHH with E1A, V2A, S122G, S123G
- binding [5]: binds

B4: VHH Tau-A2var-S-(DOTA/Gd)3 (VHH)
VHH: B1 VHH with E1D, Q5E, I54G, V88G, S122G, S123G
modifications: maleimido-(DOTA/Gd)3 on the engineered C-terminal cysteine
- binding [6]: binds
